The source of these data is the supplement of paper PMC8256030.

Assay [1] relates to HEK293T. Description: percent viability (nuclei count) relative to control; higher = more viable cells. The note with it: 10 µM; 24 h.
The subject of assay [2] is SARS-CoV-2 -1 PRF reporter mCherry-FSE-GFP(-1). The experiment in a line: mCherry (red) intensity as percent of control; higher = higher upstream reporter expression. The following applies: 10 µM; 24 h; HEK293T.
Assay [3] shares this test system. Description: percent effect, decrease of GFP/mCherry ratio (-1 PRF reporter) relative to controls; higher = stronger frameshift inhibition. The note with it: 10 µM; 24 h; HEK293T.

Values joined by “and” are separate entries in the source; they are usually repeats but may differ in a detail not shown here. Identical values can stand only once. Counter-ions that a name gives are not always drawn. Some of the results follow. Repeats in this data set agree poorly, so a single value says little.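 HEK293T cells were given each compound shortly before transfection with a reporter in which red mCherry is followed by the SARS-CoV-2 frameshift element and then GFP in the −1 frame, so GFP appears only after frameshifting.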

As to `O=C1CC[C@@]2(O)[C@H]3Cc4ccc(O)c5c4[C@@]2(CCN3CC2CC2)[C@H]1O5` [Naltrexone·HCl], the percent viability in assay [1] is 175%. For the same molecule, the mCherry in assay [2] is 113%. Besides, the percent effect in assay [3] was found to be 3.82%.

Take `CNCC12CCC(c3ccccc31)c1ccccc12` [benzoctamine]: in assay [1], the percent viability came out at 92.6%. Also, in assay [2], the mCherry was 85%. Also, the percent effect in assay [3] amounted to 0.602%.

In the case of `CC(C)NC1CCn2c(=O)[nH]c3cccc(c32)C1O` (stereo not given) [zilpaterol], in assay [1], the percent viability is 55.1%. This molecule came in with a mCherry in assay [2] of 97.3%. Also, the percent effect in assay [3] was -2.72%.

With `CN(C)C(=O)Oc1cccc([N+](C)(C)C)c1` [neostigmine bromide], the percent viability in assay [1] was 148% and 415%. The mCherry in assay [2] was 91.5% and 108%. The percent effect in assay [3] was -7% and -5.34%.

Turning to `C=CCC1(C(C)CCC)C(=O)NC(=O)NC1=O` (stereo not given) [secobarbital], in assay [1], the percent viability worked out at 334%. This molecule yielded a mCherry in assay [2] of 91.7%. The percent effect in assay [3] is -1.06%.

In the case of `O=C1CC[C@@]2(O)[C@H]3Cc4ccc(O)c5c4[C@@]2(CCN3CC2CC2)[C@H]1O5` [naltrexone], the percent viability in assay [1] is 79.3%. In assay [2], this molecule displayed a mCherry of 79.9%. In addition, the percent effect in assay [3] is -0.882%.

Regarding `OC1(c2ccc(Cl)cc2)c2ccccc2C2=NCCN21` (stereo not given) [mazindol], the percent viability in assay [1] was 97.7%. Besides, in assay [2], the mCherry came out at 99.4%. Besides, the percent effect in assay [3] was found to be 2.24%.

With `CN1[C@H]2CC[C@@H]1[C@@H](C(=O)O)[C@@H](O)C2`, in assay [1], the percent viability came to 310%. Besides, in assay [2], the mCherry stood at 86.4%. The percent effect in assay [3] is -0.776%.

As for `NCC1(CC(=O)O)CCCCC1`, the percent viability in assay [1] was 133%. For the same molecule, the mCherry in assay [2] is 88.3%. In addition, the percent effect in assay [3] was -5.7%.

For the molecule `Cc1cccc([C@H](C)c2c[nH]cn2)c1C` [dexmedetomidine], the percent viability in assay [1] came to 193%. Further, the mCherry in assay [2] worked out at 104%. For the same molecule, the percent effect in assay [3] was -2.43%.

Turning to `CCOC(=O)[C@H]1[C@@H](OC(=O)c2ccccc2)C[C@@H]2CC[C@H]1N2C`, in assay [1], the percent viability turned out to be 207%. In addition, in assay [2], the mCherry worked out at 76.2%. Also, the percent effect in assay [3] was -2.23%.

As for `CNCC(O)c1cc(OC)c(O)c(OC)c1` (stereo not given) [dimetofrine], the percent viability in assay [1] came to 356%. The same molecule gave a mCherry in assay [2] of 58.7%. Moreover, in assay [3], the percent effect is -2.67%.

For the molecule `CC1(C)C(C=C(Cl)Cl)C1C(=O)OCc1cccc(Oc2ccccc2)c1` (stereo not given), the percent viability in assay [1] turned out to be 196%. In assay [2], the mCherry came to 125%. Moreover, in assay [3], the percent effect was -2.18%.

For `Cc1ccccc1-n1c(/C=C/c2ccccn2)nc2ccccc2c1=O` [piriqualone], the percent viability in assay [1] is 85.7%. Moreover, the mCherry in assay [2] amounted to 65.6%. Further, the percent effect in assay [3] is -9.68%.

As for `O=[N+]([O-])C(Br)(CO)CO` [bronopol], the percent viability in assay [1] worked out at 283%. Besides, the mCherry in assay [2] worked out at 101%. Moreover, the percent effect in assay [3] amounted to 1.14%.

Turning to `CC(CC(C(N)=O)(c1ccccc1)c1ccccc1)N(C)C` (stereo not given) [dimevamide], the percent viability in assay [1] was 122%. The mCherry in assay [2] came out at 95.2%. In addition, the percent effect in assay [3] was -5.63%.

Turning to `CCCN1CCC[C@@H]2Cc3n[nH]cc3C[C@H]21` [quinpirole], in assay [1], the percent viability worked out at 223%. The mCherry in assay [2] came out at 108%. For the same molecule, the percent effect in assay [3] is -1.05%.

As to `Cc1ccc2c(c1)[C@]13CCCC[C@@H]1[C@H](C2)N(C)CC3` [dimemorfan], the percent viability in assay [1] is 57.4%. The molecule further came in with a mCherry in assay [2] of 111%. Also, in assay [3], the percent effect is -2.22%.

`Nc1ccncc1` [fampridine]: the percent viability in assay [1] turned out to be 245%. For the same molecule, the mCherry in assay [2] is 114%. Besides, in assay [3], the percent effect stood at 1.52%.

Take `c1ccc2c(c1)CCN1CCNCC21` (stereo not given): the percent viability in assay [1] is 152%. This molecule yielded a mCherry in assay [2] of 96.8%. Further, the percent effect in assay [3] was -0.777%.

On to `CCCN(CCC)C(=O)Cc1c(-c2ccc(Cl)cc2)nc2ccc(Cl)cn12` [alpidem], for which the percent viability in assay [1] was 180%. Moreover, the mCherry in assay [2] was 60.5%. Further, the percent effect in assay [3] is -4.67%.

For `CCN(CC)C(=O)N[C@H]1C[C@@H]2c3cccc4[nH]cc(c34)C[C@H]2N(C)C1` [terguride], the percent viability in assay [1] worked out at 65.6%. Moreover, the mCherry in assay [2] is 83.2%. Besides, the percent effect in assay [3] was -4.42%.

Take `S=C=NCc1ccccc1`: in assay [1], the percent viability is 16.2%. In addition, the mCherry in assay [2] is 21.2%. For the same molecule, the percent effect in assay [3] is -1.48%.

As for `Cc1ncc[nH]1.ClCC1CO1` [colestilan], in assay [1], the percent viability was 64.5%. Also, the mCherry in assay [2] was found to be 71.5%. Also, the percent effect in assay [3] was -4.17%.

Consider `CNCC(=O)c1ccc(O)c(O)c1` [adrenalone], for which the percent viability in assay [1] is 314%. Moreover, in assay [2], the mCherry came to 73.5%. For the same molecule, the percent effect in assay [3] was -1.25%.

Take `Fc1cccc(Br)c1NC1=NCCN1` [romifidine]: the percent viability in assay [1] worked out at 243%. The mCherry in assay [2] was 98.8%. Besides, the percent effect in assay [3] is -5.89%.

Consider `C[N+]1(C)CCCC(OC(=O)C(O)(c2ccccc2)c2ccccc2)C1` (stereo not given) [mepenzolate bromide], for which, in assay [1], the percent viability was 128%. For the same molecule, the mCherry in assay [2] came out at 123%. The percent effect in assay [3] is -7.46%.

For `CC[N+]1(C)CCCC(OC(=O)C(O)(c2ccccc2)c2ccccc2)C1` (stereo not given) [pipenzolate bromide], in assay [1], the percent viability stood at 13.5%. In assay [2], this molecule yielded a mCherry of 33.3%. The percent effect in assay [3] stood at 0.234%.

Take `CC[C@@]1(O)C(=O)OCc2c1cc1n(c2=O)Cc2cc3ccccc3nc2-1` [Camptothecin]: the percent viability in assay [1] amounted to 142%. The molecule also yielded a mCherry in assay [2] of 35.6%. Besides, in assay [3], the percent effect came out at 9.32%.

On to `CCOP(=O)(OCC)ON1C(=O)c2cccc3cccc(c23)C1=O` [naftalofos], for which, in assay [1], the percent viability turned out to be 191%. Besides, in assay [2], the mCherry worked out at 75.2%. The percent effect in assay [3] is -4.7%.

For the molecule `C[C@]1(O)CC[C@H]2[C@@H]3CCC4=CC(=O)CC[C@]4(C)[C@@]3(F)[C@@H](O)C[C@@]21C` [fluoxymesterone], the percent viability in assay [1] was found to be 120%. This molecule also yielded a mCherry in assay [2] of 102%. In assay [3], the percent effect stood at 6.12%.

On to `CC[N+]1(CC)CCC(OC(=O)C(O)(c2ccccc2)c2ccccc2)C1` (stereo not given) [benzilonium], for which the percent viability in assay [1] is 345%. The same molecule gave a mCherry in assay [2] of 56.6%. Besides, the percent effect in assay [3] was -1.72%.

With `C#CC(C)(O)CC` (stereo not given), the percent viability in assay [1] came to 77.3%. This molecule returned a mCherry in assay [2] of 112%. Besides, the percent effect in assay [3] was -2.21%.

`COc1cc([C@@H]2c3cc4c(cc3[C@H](O)[C@H]3COC(=O)[C@H]23)OCO4)cc(OC)c1OC` [Podofilox]: the percent viability in assay [1] came to 19.8%. Also, in assay [2], the mCherry worked out at 21.9%. The percent effect in assay [3] was -6.46%.

As to `CN(C)[C@@H]1C(=O)C(C(N)=O)=C(O)[C@@]2(O)C(=O)C3=C(O)c4c(O)ccc(Cl)c4[C@@](C)(O)[C@H]3C[C@@H]12` [Aureocycline], the percent viability in assay [1] was determined as 286%. In addition, the mCherry in assay [2] was found to be 106%. The percent effect in assay [3] was -1.33%.
